In article PMC4424349 one finds binding data, which are given here for one substance.

Amino acid sequences for entries named in this document (tags omitted).
UniProt Q8IDR3: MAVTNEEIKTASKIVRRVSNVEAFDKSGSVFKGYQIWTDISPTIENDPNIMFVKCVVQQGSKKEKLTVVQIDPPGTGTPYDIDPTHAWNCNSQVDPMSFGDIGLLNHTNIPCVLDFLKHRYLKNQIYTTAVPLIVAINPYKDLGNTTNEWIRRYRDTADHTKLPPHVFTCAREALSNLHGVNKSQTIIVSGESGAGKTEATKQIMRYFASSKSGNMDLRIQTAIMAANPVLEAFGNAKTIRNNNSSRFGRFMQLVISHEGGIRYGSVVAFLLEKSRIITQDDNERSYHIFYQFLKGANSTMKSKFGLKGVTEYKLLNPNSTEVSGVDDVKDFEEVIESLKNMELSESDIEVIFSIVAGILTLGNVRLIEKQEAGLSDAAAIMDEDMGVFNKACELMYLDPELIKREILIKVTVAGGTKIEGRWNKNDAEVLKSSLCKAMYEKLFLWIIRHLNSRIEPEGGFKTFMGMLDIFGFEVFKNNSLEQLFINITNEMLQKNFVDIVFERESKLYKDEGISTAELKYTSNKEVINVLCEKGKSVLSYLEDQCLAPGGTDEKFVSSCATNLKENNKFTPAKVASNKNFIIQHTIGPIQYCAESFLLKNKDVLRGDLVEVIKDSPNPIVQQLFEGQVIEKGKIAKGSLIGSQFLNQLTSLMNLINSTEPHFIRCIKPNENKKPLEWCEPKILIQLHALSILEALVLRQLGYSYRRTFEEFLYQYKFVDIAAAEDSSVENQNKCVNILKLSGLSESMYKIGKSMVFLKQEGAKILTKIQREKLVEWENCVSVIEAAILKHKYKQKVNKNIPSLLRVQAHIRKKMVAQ
UniProt Q8I5I8: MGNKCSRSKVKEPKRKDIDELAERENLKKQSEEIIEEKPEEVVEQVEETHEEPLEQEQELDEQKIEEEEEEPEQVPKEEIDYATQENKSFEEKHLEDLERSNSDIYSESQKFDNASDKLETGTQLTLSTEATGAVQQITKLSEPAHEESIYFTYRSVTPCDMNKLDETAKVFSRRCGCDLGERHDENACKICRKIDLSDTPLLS

Results are given in words; binding and its absence hold for the method and conditions named. Binding seen in cells or lysates may run through a third protein. Some entries that bind do so weakly or less than the wild type. For some assays here: Where a sequence is shown, tags or fusion partners need not be part of it.

Assay [1] addresses PfMyoA-GFP (Plasmodium falciparum myosin A with C-terminal GFP) (Plasmodium falciparum 3D7) (UniProt Q8IDR3). Put plainly: co-IP; GFP-Trap agarose beads on schizont lysates (0.5% Nonidet P-40, 150 mM NaCl, 10 mM Tris-HCl pH 7.5, diluted to 0.2% detergent), 2 h at 4 °C, washes with 150 mM and 300 mM NaCl; Western blot with anti-GFP, anti-GAP50, anti-GAP45, anti-MTIP; 3D7 lysate as control. For orientation: Immunoblotting shows a protein as a band on a membrane.

Assay [2] addresses T1, PfMyoB-GFP (Plasmodium falciparum myosin B with C-terminal GFP) (Plasmodium falciparum 3D7) (UniProt Q8I465).
T1 sequence: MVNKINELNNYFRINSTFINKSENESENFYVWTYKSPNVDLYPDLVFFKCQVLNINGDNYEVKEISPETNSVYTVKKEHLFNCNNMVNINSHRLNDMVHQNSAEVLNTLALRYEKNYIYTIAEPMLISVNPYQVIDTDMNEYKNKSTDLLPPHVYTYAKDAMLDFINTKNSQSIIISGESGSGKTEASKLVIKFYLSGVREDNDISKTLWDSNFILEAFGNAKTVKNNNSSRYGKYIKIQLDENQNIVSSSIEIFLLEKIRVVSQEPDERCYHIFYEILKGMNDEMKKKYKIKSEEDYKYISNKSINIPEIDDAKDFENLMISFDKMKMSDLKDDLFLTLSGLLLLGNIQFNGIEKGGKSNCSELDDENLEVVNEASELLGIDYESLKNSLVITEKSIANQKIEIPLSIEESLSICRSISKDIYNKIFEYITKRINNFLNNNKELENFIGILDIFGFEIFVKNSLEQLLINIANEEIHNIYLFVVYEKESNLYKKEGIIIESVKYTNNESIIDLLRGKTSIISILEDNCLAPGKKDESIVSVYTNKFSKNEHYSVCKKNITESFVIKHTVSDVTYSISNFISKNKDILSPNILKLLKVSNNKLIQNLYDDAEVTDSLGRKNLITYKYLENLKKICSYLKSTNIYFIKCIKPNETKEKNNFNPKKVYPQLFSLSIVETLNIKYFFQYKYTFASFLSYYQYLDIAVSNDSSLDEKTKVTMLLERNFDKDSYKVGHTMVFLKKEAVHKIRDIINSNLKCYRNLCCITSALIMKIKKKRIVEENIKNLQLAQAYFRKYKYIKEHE
The assay is described as above.

With “glideosome-associated protein 45 (GAP45) (from UniProt Q8I5I8 1-204)”, the binding result is recorded as “binds” in assay [1] and “no binding” in assay [2].
